# Measured values as given in patent US11225645B2 (priority 2002, dated 2022).
# Some entries share one result that the patent states for a list of compounds.
# System: coenzyme-binding glucose dehydrogenase
# Test: Inhibitor test, additives added to Enzymatic activity measurement method 1
# Assay type: biochemical, Aspergillus terreus
# Conditions: additive 1 mM final concentration
SMILES,"Inhibition (%) (listed as 1,10-phenanthroline)",Inhibition (%) (listed as proflavin)
"c1cnc2c(c1)ccc1cccnc12 [1,10-Phenanthroline]",≥ 60,–
Nc1ccc2cc3ccc(N)cc3nc2c1 [Proflavin],–,≥ 60
